PubChem BioAssay AID720505, Drosophila RNAi Screening Center | 2013
Purpose: 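Knock-downs that reduce calcium influx once internal stores are emptied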 (primary screen). System: Drosophila S2R+ cells. Reagents: long dsRNA against Drosophila genes. Challenge: thapsigargin (2 µM) in calcium-free buffer to empty internal stores, then 2 mM calcium added back. Read-out: 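Stores emptied by 2 µM thapsigargin without calcium, then 2 mM calcium re-added; fluo-4 fluorescence followed by FLIPR in 384-well plates, per-well averaged endpoint, raw; two screen passes, some wells retested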. Reading the numbers: calcium signal: higher = more calcium entry after store depletion. Rule for the call: 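Knock-downs counted as hits when calcium entry dropped relative to STIM1 positive and Rho1 negative controls present on each plate; roughly 1500 genes called, with reductions of differing size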. Calls: active = called as lowering calcium entry; inactive = not called.
The screen tested about 20,000 reagents; shown is an unselected part of those that have a named target and a result. In the full data, about 2,100 (10%) got an active call. 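Raw plate signals without normalisation; calls rest on control-based scores that were not deposited; replicate 2 separates called from uncalled poorly.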 The numbers tell different reagents against one gene apart. Names joined by + are all predicted targets of the reagent. Reagent sequences are not shown. Not given: the amount of reagent, the time to read-out.

With Tektin-A, what was measured?
calcium signal, replicate 1: 69.9; calcium signal, replicate 2: 95.9; call: active

With pst, how do the results read?
calcium signal, replicate 1: 120; calcium signal, replicate 2: 170; call: inactive

For CG11961, what was measured?
calcium signal, replicate 1: 135; calcium signal, replicate 2: 83.4; call: inactive

What did the screen give for Tim10 + CG42497?
calcium signal, replicate 1: 79.3; calcium signal, replicate 2: 105; call: inactive

With Spindly, what does the deposit list?
calcium signal, replicate 1: 55.5; calcium signal, replicate 2: 121; call: active

Which result is listed for sha?
calcium signal, replicate 1: 157; calcium signal, replicate 2: 174; call: inactive

With AANATL6, what does the deposit list?
calcium signal, replicate 1: 214; calcium signal, replicate 2: 110; call: inactive

With wntD, how do the results read?
calcium signal, replicate 1: 155; calcium signal, replicate 2: 218; call: inactive

For LpR2 #1, how do the results read?
calcium signal, replicate 1: 95.7; calcium signal, replicate 2: 115; call: inactive

With LpR2 #2, what does the deposit list?
calcium signal, replicate 1: 172; calcium signal, replicate 2: 124; call: inactive

What is on record for CG42710?
calcium signal, replicate 1: 156; calcium signal, replicate 2: 110; call: inactive

What did the screen give for Taldo?
calcium signal, replicate 1: 134; calcium signal, replicate 2: 121; call: inactive

With CG11703, what does the deposit list?
calcium signal, replicate 1: 135; calcium signal, replicate 2: 167; call: inactive

For CaBP1, what does the deposit list?
calcium signal, replicate 1: 132; calcium signal, replicate 2: 104; call: inactive

With CG18190, what was measured?
calcium signal, replicate 1: 135; calcium signal, replicate 2: 113; call: inactive

What is on record for TpnC47D?
calcium signal, replicate 1: 138; calcium signal, replicate 2: 170; call: inactive

What did the screen give for drl?
calcium signal, replicate 1: 109; calcium signal, replicate 2: 88.8; call: inactive

For CG10163, how do the results read?
calcium signal, replicate 1: 107; calcium signal, replicate 2: 96; call: inactive

With veil, how do the results read?
calcium signal, replicate 1: 120; calcium signal, replicate 2: 133; call: inactive

With CG11630, how do the results read?
calcium signal, replicate 1: 104; calcium signal, replicate 2: 111; call: inactive

How did the screen score Acp26Aa?
calcium signal, replicate 1: 199; calcium signal, replicate 2: 99.6; call: inactive

What is on record for CG11436?
calcium signal, replicate 1: 127; calcium signal, replicate 2: 115; call: inactive

For CG14480, what does the deposit list?
calcium signal, replicate 1: 185; calcium signal, replicate 2: 141; call: inactive

How did the screen score GCS2alpha?
calcium signal, replicate 1: 90.9; calcium signal, replicate 2: 110; call: inactive

What is on record for acj6?
calcium signal, replicate 1: 122; calcium signal, replicate 2: 117; call: inactive

What is on record for CG2993 #1?
calcium signal, replicate 1: 144; calcium signal, replicate 2: 165; call: inactive

With CG2993 #2, how do the results read?
calcium signal, replicate 1: 81.9; calcium signal, replicate 2: 86.7; call: inactive

With Rpp21, what does the deposit list?
calcium signal, replicate 1: 102; calcium signal, replicate 2: 251; call: inactive

Active calls, among the entries above:
Tektin-A | calcium signal, replicate 1 = 69.9; calcium signal, replicate 2 = 95.9; call = active
Spindly | calcium signal, replicate 1 = 55.5; calcium signal, replicate 2 = 121; call = active
